Literature values in US20210170044A1, “SYSTEMS AND METHODS FOR LYSOSOME INDUCED IMMUNOGENIC CELL DEATH” (Antigenesis LLC, priority 2017, published 2021).
For at least one compound, name, drawing or mass did not settle the structure.

System: advanced hepatocellular carcinoma
Settings: patients with advanced hepatocellular carcinoma receiving 5-fluorouracil; pravastatin as well vs control group

CC[C@H](C)C(=O)O[C@H]1C[C@H](O)C=C2C=C[C@H](C)[C@H](CC[C@@H](O)C[C@@H](O)CC(=O)O)[C@H]21 [pravastatin]
median survival time: 18 months
